At least one compound was matched to its structure with a doubt left.
Columns and labels:
CD126 = assay: Ex vivo flow cytometry priming assay, CD126 surface marker expression on AML patient samples; type: cell-based, human; conditions: AML Patient 3
Description: (§1) 12 primary AML patient samples were assayed for priming response using a High-Throughput Phenotypic Screening Platform. Samples were treated with 70 priming compounds (either FDA approved compounds or compounds in clinical development). […] This process was repeated on bone marrow aspirate and peripheral blood from 3 healthy donors.

CD24 = assay: Ex vivo flow cytometry priming assay, CD24 surface marker expression on AML patient samples; type: cell-based, human; conditions: AML Patient 3
Description: as §1

## C[C@@H]1C[C@H]2[C@@H]3CCC4=CC(=O)C=C[C@]4(C)[C@@]3(F)[C@@H](O)C[C@]2(C)[C@@]1(O)C(=O)CO [Dexamethasone]
CD126
  expression of CD126: little effect
CD24
  expression of CD24: little effect
